According to article doi:10.1101/2019.12.16.877498:
These are yes or no findings as the source states them, for the method shown. In cells and extracts the contact can be indirect. A yes stands for co-enrichment or nearness to the bait. Other partners may have been found.

Amino acid sequences for entries named in this document (tags omitted). A change or cut given only in a name is not applied to a line headed by its entry.
UniProt Q8TDG2: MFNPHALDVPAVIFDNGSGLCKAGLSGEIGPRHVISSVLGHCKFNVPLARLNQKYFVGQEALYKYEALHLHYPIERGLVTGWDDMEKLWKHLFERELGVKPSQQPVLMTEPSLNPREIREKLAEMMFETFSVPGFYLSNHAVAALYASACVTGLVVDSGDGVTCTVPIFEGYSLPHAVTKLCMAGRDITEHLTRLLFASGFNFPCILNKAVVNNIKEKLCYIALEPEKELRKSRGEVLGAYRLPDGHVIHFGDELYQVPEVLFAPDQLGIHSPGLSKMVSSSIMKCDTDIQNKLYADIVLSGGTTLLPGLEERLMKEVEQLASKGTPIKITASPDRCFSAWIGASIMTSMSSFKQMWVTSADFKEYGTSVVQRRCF
UniProt P11142: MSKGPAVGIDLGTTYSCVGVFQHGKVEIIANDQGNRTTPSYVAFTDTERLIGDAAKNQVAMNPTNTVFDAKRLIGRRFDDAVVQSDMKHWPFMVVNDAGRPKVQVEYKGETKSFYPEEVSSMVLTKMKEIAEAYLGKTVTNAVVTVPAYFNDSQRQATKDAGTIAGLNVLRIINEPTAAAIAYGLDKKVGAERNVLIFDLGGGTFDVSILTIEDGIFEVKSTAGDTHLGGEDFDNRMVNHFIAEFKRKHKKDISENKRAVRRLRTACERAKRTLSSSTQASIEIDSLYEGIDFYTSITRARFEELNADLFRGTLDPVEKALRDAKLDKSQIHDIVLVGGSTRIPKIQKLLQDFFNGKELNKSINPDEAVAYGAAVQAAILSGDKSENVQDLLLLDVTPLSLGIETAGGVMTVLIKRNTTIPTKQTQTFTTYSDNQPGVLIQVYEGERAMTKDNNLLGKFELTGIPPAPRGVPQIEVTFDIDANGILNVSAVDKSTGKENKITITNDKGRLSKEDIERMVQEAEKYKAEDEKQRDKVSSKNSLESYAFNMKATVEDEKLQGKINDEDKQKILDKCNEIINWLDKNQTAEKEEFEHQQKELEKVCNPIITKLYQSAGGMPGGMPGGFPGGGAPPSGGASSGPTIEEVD
UniProt P23258: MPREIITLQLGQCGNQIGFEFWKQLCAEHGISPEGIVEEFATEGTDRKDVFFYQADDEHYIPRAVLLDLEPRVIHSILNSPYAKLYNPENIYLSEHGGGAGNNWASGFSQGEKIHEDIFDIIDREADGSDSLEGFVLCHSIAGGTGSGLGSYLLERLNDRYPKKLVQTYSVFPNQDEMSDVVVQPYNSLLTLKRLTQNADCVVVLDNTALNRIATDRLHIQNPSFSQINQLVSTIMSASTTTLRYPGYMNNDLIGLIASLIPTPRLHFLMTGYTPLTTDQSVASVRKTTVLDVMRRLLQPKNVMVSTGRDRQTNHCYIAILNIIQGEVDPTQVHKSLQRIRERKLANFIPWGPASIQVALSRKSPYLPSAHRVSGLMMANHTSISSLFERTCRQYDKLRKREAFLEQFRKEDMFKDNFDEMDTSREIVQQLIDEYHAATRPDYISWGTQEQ
UniProt O95816: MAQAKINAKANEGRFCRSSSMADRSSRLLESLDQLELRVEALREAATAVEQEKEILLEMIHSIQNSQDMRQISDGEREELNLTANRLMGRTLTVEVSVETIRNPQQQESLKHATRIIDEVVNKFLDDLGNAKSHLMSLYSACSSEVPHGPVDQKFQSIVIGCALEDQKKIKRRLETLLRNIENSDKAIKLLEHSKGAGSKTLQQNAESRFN

B1: Septin9 (protein, UniProt Q9UHD8 1-586)
chain: MKKSYSGGTRTSSGRLRRLGDSSGPALKRSFEVEEVETPNSTPPRRVQTPLLRATVASSTQKFQDLGVKNSEPSARHVDSLSQRSPKASLRRVELSGPKAAEPVSRRTELSIDISSKQVENAGAIGPSRFGLKRAEVLGHKTPEPAPRRTEITIVKPQESAHRRMEPPASKVPEVPTAPATDAAPKRVEIQMPKPAEAPTAPSPAQTLENSEPAPVSQLQSRLEPKPQPPVAEATPRSQEATEAAPSCVGDMADTPRDAGLKQAPASRNEKAPVDFGYVGIDSILEQMRRKAMKQGFEFNIMVVGQSGLGKSTLINTLFKSKISRKSVQPTSEERIPKTIEIKSITHDIEEKGVRMKLTVIDTPGFGDHINNENCWQPIMKFINDQYEKYLQEEVNINRKKRIPDTRVHCCLYFIPATGHSLRPLDIEFMKRLSKVVNIVPVIAKADTLTLEERVHFKQRITADLLSNGIDVYPQKEFDEDSEDRLVNEKFREMIPFAVVGSDHEYQVNGKRILGRKTKWGTIEVENTTHCEFAYLRDLLIRTHMQNIKDITSSIHFEAYRVKRLNEGSSAMANGMEEKEPEAPEM
B2: EHD4, endogenous (protein, UniProt Q9H223 1-541)
chain: MFSWMGRQAGGRERAGGADAVQTVTGGLRSLYLRKVLPLEEAYRFHEFHSPALEDADFENKPMILLVGQYSTGKTTFIRYLLEQDFPGMRIGPEPTTDSFIAVMYGETEGSTPGNALVVDPKKPFRKLSRFGNAFLNRFMCSQLPNQVLKSISVIDSPGILSGEKQRISRGYDFCQVLQWFAERVDRIILLFDAHKLDISDEFSEAIKAFRGQDDKIRVVLNKADQVDTQQLMRVYGALMWSLGKVINTPEVLRVYIGSFWAQPLQNTDNRRLFEAEAQDLFRDIQSLPQKAAVRKLNDLIKRARLAKVHAYIISYLKKEMPSVFGKENKKRELISRLPEIYIQLQREYQISAGDFPEVKAMQEQLENYDFTKFHSLKPKLIEAVDNMLSNKISPLMNLISQEETSTPTQLVQGGAFDGTTEGPFNQGYGEGAKEGADEEEWVVAKDKPVYDELFYTLSPINGKISGVNAKKEMVTSKLPNSVLGKIWKLADCDCDGMLDEEEFALAKHLIKIKLDGYELPSSLPPHLVPPSHRKSLPKAD
B3: Septin2 (protein, UniProt Q15019 1-361)
chain: MSKQQPTQFINPETPGYVGFANLPNQVHRKSVKKGFEFTLMVVGESGLGKSTLINSLFLTDLYPERVIPGAAEKIERTVQIEASTVEIEERGVKLRLTVVDTPGYGDAINCRDCFKTIISYIDEQFERYLHDESGLNRRHIIDNRVHCCFYFISPFGHGLKPLDVAFMKAIHNKVNIVPVIAKADTLTLKERERLKKRILDEIEEHNIKIYHLPDAESDEDEDFKEQTRLLKASIPFSVVGSNQLIEAKGKKVRGRLYPWGVVEVENPEHNDFLKLRTMLITHMQDLQEVTQDLHYENFRSERLKRGGRKVENEDMNKDQILLEKEAELRRMQEMIARMQAQMQMQMQGGDGDGGALGHHV

Biological target: Actin-Related Protein-Testis1 (ARP-T1), wild type, tagged with Myc-DDK (human) (UniProt Q8TDG2)
Assay: affinity purification with mass spectrometry

binding, binds:
heat shock cognate 71 kDa protein (Hsc70) (from UniProt P11142 1-646)
γ-Tubulin (from UniProt P23258)
Bcl2-associated athanogen (BAG2) protein (from UniProt O95816 1-211)
B1
B2
B3
